Measured values taken from US20130210733A1, “METHODS OF TREATING LUNG DISEASE” (Cytokinetics, Inc., priority 2010, published 2013).
At least one compound was matched to its structure with a doubt left.

System: human pulmonary arterial smooth muscle cells from patients with idiopathic pulmonary arterial hypertension (IPAH HPASMC)
Assay: IPAH HPASMC proliferation assay
Assay type: cell-based
Settings: concentrations up to 1 uM
Procedure: Primary cultures of human pulmonary arterial smooth muscle cells were derived from distal blood vessels taken from lungs harvested from patients with idiopathic pulmonary arterial hypertension (IPAH) who had been treated with iloprost or a combination of epoprostenol and bosentan for at least 1.4 years. Cells were cultured for 24 hours in 6-well plates in a solution of human smooth muscle basal medium (SMBM; TCS Cellworks, UK) with 9% fetal bovine serum (FBS; Invitrogen, US) and penicillin-streptomycin (PenStrep; 50 units/mL; Invitrogen, US). The incubating solution was then changed to PenStrep in SMBM and the cells were allowed to incubate for another 48 hours. Test compounds were administered to the test wells as DMSO solutions with FBS (FBS and DMSO or SMBM were administered to the control wells). After 96 hours of incubation, the cells were trypsinized (0.05% trypsin/EDTA; Invitrogen, US) and 20 uL of cell suspension was added to 20 uL of Accustain solution T and Accustain solution N (Labtech, UK). The cells were counted and their viability assessed using an ADAM Automated Cell Counter (Digital Bio, Korea). Results were expressed in cell number per mL and percent growth compared to FBS-induced growth alone.

SMILES: COC(c1ccccc1)(c1ccccc1)[C@H](Oc1nc(C)cc(C)n1)C(=O)O [ambrisentan, reference compound]
- effect on proliferation (in words): inhibited proliferation of IPAH cells at higher concentrations
